# Measurements from PMC5011358.
# For at least one entry, the source does not settle the construct or the ends of the probe. At least one verdict was read from the data and is not stated in words by the source.
# Test system: Six1 + Six4
# Assay: EMSA
# Details: labeled probe, Six1 and Six4 mixed; EMSA as previously described (ref 38); pH and temperature not given; protein translated in vitro
sequence,measurement,value
TGGGGGGGCTCAGGTTTCTGTGGCGT (double strand) [Myogenin MEF3],binding result,binds
